These are literature values, as cited in US20170363612A1, “COMPOSITIONS AND METHODS RELATING TO PROLIFERATIVE DISORDERS” (Wayne State University, priority 2014, published 2017).

The conditions of the data set: cited from earlier work.

Consider `CC(=O)O[C@H]1C(=O)[C@@]2(C)[C@H]([C@H](OC(=O)c3ccccc3)[C@]3(O)C[C@H](OC(=O)[C@H](O)[C@@H](NC(=O)c4ccccc4)c4ccccc4)C(C)=C1C3(C)C)[C@]1(OC(C)=O)CO[C@@H]1C[C@@H]2O` [Paclitaxel, 5β,20-epoxy-1,2α,4,7β,10β,13α-hexahydroxytax-1-1-en-9-14,10-diacetate 2-benzoate 13-ester with (2R,3S)-N-benzoyl-3-phenylisoserine], for which the solubility in water entry was “less than 0.01 mg/ml”.
